Data as given in article PMC7939391, “[4Fe-4S] cluster trafficking mediated by Arabidopsis mitochondrial ISCA and NFU proteins” (The Journal of Biological Chemistry, 2021).
Results are given in words; binding and its absence hold for the method and conditions named. Sequences can lack the tags named with a protein.

Key:
[1] = biological target: T1, Arabidopsis thaliana NFU4, mature form, Gal4 fusion for yeast two-hybrid (Arabidopsis thaliana) (UniProt Q9LIG6); assay: two-hybrid; binary Gal4-based Y2H in yeast strain CY306; NFU4/NFU5 (mature forms or separate domains) fused to the Gal4 DNA-binding domain, ISC components fused to the Gal4 activation domain; growth on -His-Trp-Leu medium at 30 °C with 2 or 5 mM 3-AT, read after 5 days
T1 sequence: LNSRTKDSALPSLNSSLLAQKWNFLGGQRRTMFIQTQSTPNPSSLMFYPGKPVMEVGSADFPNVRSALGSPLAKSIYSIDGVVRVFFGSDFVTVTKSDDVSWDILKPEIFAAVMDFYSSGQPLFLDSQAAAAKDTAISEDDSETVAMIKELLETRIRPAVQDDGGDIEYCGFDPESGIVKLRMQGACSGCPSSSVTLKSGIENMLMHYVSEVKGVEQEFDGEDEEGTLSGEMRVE

[2] = biological target: T2, Arabidopsis thaliana NFU5, mature form, Gal4 fusion for yeast two-hybrid (Arabidopsis thaliana) (UniProt Q9C8J2); assay: as above
T2 sequence: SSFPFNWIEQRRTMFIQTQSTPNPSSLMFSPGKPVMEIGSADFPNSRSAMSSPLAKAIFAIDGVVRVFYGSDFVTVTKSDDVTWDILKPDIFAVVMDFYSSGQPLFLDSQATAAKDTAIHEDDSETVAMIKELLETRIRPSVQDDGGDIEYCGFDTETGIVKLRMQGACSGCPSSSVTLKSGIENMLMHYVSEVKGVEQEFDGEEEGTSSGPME

binding [1]: no binding | binding [2]: no binding
B1: Arabidopsis thaliana GRXS15, mature form, Gal4 fusion for yeast two-hybrid (protein, UniProt Q8LBK6 38-169)
chain: SSTVPSDSDTHDDFKPTQKVPPDSTDSLKDIVENDVKDNPVMIYMKGVPESPQCGFSSLAVRVLQQYNVPISSRNILEDQELKNAVKSFSHWPTFPQIFIKGEFIGGSDIILNMHKEGELEQKLKDVSGNQD
